Source: PubChem BioAssay AID1224830 (NIAID, 2016)
In all, the deposit lists about 18,000 reagents; below is a part drawn at random. About 2,900 of them (16%) count as active. 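Calls are made per well; low scores hint the gene aids the LPS response, high scores that it dampens it.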 A number with no mark means an inactive call. Repeated entries: four replicate wells of each siRNA pool. Reagent sequences are not shown.

- Purpose: 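Genes whose knock-down alters the TNF-alpha reporter response to LPS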 (primary screen)
- Cells: human THP-1 monocytic leukaemia cells, TNF dual-luciferase reporter clone, PMA-differentiated to macrophage-like cells
- Reagent: siRNA pool against human genes, 50 nM
- Time to read-out: LPS for 4 h, given about 3 days after siRNA transfection
- Conditions: bacterial LPS (TLR4 ligand), 10 ng/ml
- Measurement: 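Ratio of firefly to renilla light, scaled to the plate median and expressed as a robust z-score per replicate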
- Scale: TNF reporter robust z-score: higher = stronger TNF reporter response to LPS
- Call rule: 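a well is active when its z-score exceeds 2.8 or falls below -1.5; control wells carry no call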

| gene | TNF reporter robust z-score |
| --- | --- |
| TRAK2 (GeneID 66008) | 0.44 |
| TRAK2 (GeneID 66008) | 0.73 |
| TRAK2 (GeneID 66008) | -1.68 (active) |
| TRAK2 (GeneID 66008) | 0.69 |
| CHRNA1 (GeneID 1134) | -1.11 |
| CHRNA1 (GeneID 1134) | 0.2 |
| CHRNA1 (GeneID 1134) | -0.82 |
| CHRNA1 (GeneID 1134) | 2.65 |
| NTN3 (GeneID 4917) | -0.66 |
| NTN3 (GeneID 4917) | -0.37 |
| NTN3 (GeneID 4917) | 0.43 |
| NTN3 (GeneID 4917) | -0.48 |
| GRAMD2B (GeneID 65983) | -1.46 |
| GRAMD2B (GeneID 65983) | -0.57 |
| GRAMD2B (GeneID 65983) | 0.95 |
| GRAMD2B (GeneID 65983) | -0.97 |
| PEX11B (GeneID 8799) | 0.04 |
| PEX11B (GeneID 8799) | 1.6 |
| PEX11B (GeneID 8799) | 1.17 |
| PEX11B (GeneID 8799) | 1.49 |
| RNF215 (GeneID 200312) | -1.2 |
| RNF215 (GeneID 200312) | -0.74 |
| RNF215 (GeneID 200312) | 0.5 |
| RNF215 (GeneID 200312) | -0.19 |
| PROK2 (GeneID 60675) | -1.35 |
| PROK2 (GeneID 60675) | 0.18 |
| PROK2 (GeneID 60675) | -0.61 |
| PROK2 (GeneID 60675) | -0.27 |
| STYK1 (GeneID 55359) | -0.77 |
| STYK1 (GeneID 55359) | 0 |
| STYK1 (GeneID 55359) | 1.19 |
| STYK1 (GeneID 55359) | 0.38 |
| CTSH (GeneID 1512) | 0.11 |
| CTSH (GeneID 1512) | 0.44 |
| CTSH (GeneID 1512) | -0.05 |
| CTSH (GeneID 1512) | 0.29 |
| H3-5 (GeneID 440093) | -0.47 |
| H3-5 (GeneID 440093) | -1.04 |
| H3-5 (GeneID 440093) | -0.95 |
| H3-5 (GeneID 440093) | -0.74 |
| ZBP1 (GeneID 81030) | 1.09 |
| ZBP1 (GeneID 81030) | 1.77 |
| ZBP1 (GeneID 81030) | 0.66 |
| ZBP1 (GeneID 81030) | 0.94 |
| TFDP2 (GeneID 7029) | 0.77 |
| TFDP2 (GeneID 7029) | 0.98 |
| TFDP2 (GeneID 7029) | 1.27 |
| TFDP2 (GeneID 7029) | 1.12 |
| PCDHA8 (GeneID 56140) | -0.8 |
| PCDHA8 (GeneID 56140) | -0.64 |
| PCDHA8 (GeneID 56140) | -0.44 |
| PCDHA8 (GeneID 56140) | -0.35 |
| GSPT2 (GeneID 23708) | 0.51 |
| GSPT2 (GeneID 23708) | -0.14 |
| GSPT2 (GeneID 23708) | 0.02 |
| GSPT2 (GeneID 23708) | 0.74 |
| SLC22A9 (GeneID 114571) | 2.05 |
| SLC22A9 (GeneID 114571) | 1.46 |
| SLC22A9 (GeneID 114571) | 0.17 |
| SLC22A9 (GeneID 114571) | 3.52 (active) |
| PARN (GeneID 5073) | -1.09 |
| PARN (GeneID 5073) | -0.64 |
| PARN (GeneID 5073) | -0.48 |
| PARN (GeneID 5073) | -0.47 |
| ABTB3 (GeneID 121551) | 1.14 |
| ABTB3 (GeneID 121551) | -0.28 |
| ABTB3 (GeneID 121551) | -0.25 |
| ABTB3 (GeneID 121551) | -0.51 |
| TNNT1 (GeneID 7138) | 0.32 |
| TNNT1 (GeneID 7138) | 0.87 |
| TNNT1 (GeneID 7138) | 2.03 |
| TNNT1 (GeneID 7138) | 1.2 |
| CUX2 (GeneID 23316) | -0.78 |
| CUX2 (GeneID 23316) | -0.79 |
| CUX2 (GeneID 23316) | 0.09 |
| CUX2 (GeneID 23316) | 0.68 |

9 of these entries, set out differently:
NTN3 (GeneID 4917)
- TNF reporter robust z-score: 0.43

NTN3 (GeneID 4917)
- TNF reporter robust z-score: -0.48

GRAMD2B (GeneID 65983)
- TNF reporter robust z-score: -1.46

GRAMD2B (GeneID 65983)
- TNF reporter robust z-score: -0.57

GRAMD2B (GeneID 65983)
- TNF reporter robust z-score: 0.95

GRAMD2B (GeneID 65983)
- TNF reporter robust z-score: -0.97

PEX11B (GeneID 8799)
- TNF reporter robust z-score: 0.04

PEX11B (GeneID 8799)
- TNF reporter robust z-score: 1.6

PEX11B (GeneID 8799)
- TNF reporter robust z-score: 1.17
